Measurements taken from PMC9256752.
No constants are given. Whether binding was seen depends on the method and setting. Binding seen in cells or lysates may run through a third protein. Some entries that bind do so weakly or less than the wild type.

The chains behind the UniProt entries cited, without tags or fusion partners.
UniProt Q92769: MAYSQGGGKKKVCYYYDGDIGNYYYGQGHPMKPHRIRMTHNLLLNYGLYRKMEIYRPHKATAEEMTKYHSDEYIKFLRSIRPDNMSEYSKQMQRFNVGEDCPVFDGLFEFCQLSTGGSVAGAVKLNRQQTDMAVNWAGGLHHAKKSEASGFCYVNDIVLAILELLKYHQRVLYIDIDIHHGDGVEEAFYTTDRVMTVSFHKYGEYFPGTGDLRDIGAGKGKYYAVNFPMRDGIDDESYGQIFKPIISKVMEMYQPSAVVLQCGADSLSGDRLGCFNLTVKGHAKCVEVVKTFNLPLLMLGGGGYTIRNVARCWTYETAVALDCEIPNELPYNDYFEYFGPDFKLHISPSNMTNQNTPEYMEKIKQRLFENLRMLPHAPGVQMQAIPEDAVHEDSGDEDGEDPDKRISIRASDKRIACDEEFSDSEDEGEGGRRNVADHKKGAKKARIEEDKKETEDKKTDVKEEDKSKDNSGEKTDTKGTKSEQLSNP

Columns and labels:
[1] = target: T1, FOXA3 (human (in human HCC cells SMMC-7721 and Huh7)) (UniProt P55318); experiment: pull-down; GST fusion probe protein added to cell lysates, 4 °C for 2 h, isolated on glutathione-coated beads; which partner was the GST fusion is not stated; also with lysates of cells transfected with sh1-DACT3-AS1 (binding weakened); only the target purified
T1 sequence: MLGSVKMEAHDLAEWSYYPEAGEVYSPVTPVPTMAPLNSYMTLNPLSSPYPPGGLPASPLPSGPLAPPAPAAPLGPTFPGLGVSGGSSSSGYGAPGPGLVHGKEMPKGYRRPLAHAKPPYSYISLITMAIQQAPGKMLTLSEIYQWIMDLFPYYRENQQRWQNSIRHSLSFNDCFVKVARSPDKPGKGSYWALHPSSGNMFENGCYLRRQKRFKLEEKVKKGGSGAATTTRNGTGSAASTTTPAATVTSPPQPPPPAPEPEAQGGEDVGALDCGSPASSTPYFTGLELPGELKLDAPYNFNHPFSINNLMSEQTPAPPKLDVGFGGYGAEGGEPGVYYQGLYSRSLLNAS

[2] = target: T1, FOXA3 (human (in human HCC cells SMMC-7721 and Huh7)); experiment: co-IP; in HCC cells; also after transfection of sh1-DACT3-AS1 (knock-down of lncRNA DACT3-AS1 weakened the binding); no method section for the co-IP

HDAC2 (from UniProt Q92769 1-488)
binding [1]: binds | binding [2]: binds
